Small-molecule microarray binding calls

Targets, with sequences 5′ to 3′:
SAM-II: SAM-II riboswitch RNA pseudoknot, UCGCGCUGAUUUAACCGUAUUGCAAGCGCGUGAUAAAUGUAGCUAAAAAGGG. About 200 hits among about 21,000 compounds.
PreQ1: PreQ1 riboswitch RNA pseudoknot, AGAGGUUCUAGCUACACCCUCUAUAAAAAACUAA. From B. subtilis. About 170 hits among about 24,000 compounds.
TPP: TPP riboswitch RNA three-way junction, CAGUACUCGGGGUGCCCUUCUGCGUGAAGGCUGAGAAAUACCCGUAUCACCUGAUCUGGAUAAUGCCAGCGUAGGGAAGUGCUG. About 160 hits among about 24,000 compounds.

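Each compound is printed as two spots on a slide made to bind it covalently, so it has no test concentration; the read-out is fluorescence of the bound, labelled oligonucleotide. The data file lists only calls. An earlier report of the laboratory on the PreQ1, TPP and SAM-II riboswitches (doi:10.1038/s41467-019-09493-3) used 1 µM RNA for 2 h and required a mean Z-score above 3 (spot signal-to-noise against the whole library), a score well above that on a control array, and duplicate spots agreeing (coefficient of variation under 100); it then also set aside compounds that hit other targets, which this list keeps. The cut-offs behind this list may differ. These are primary screening calls, not affinities; a compound without a hit may have attached poorly or may still bind in solution.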 Key: hit = hit, none = tested without a hit. Compounds were drawn at random from those tested, without regard to their results. A target missing from an entry has no call listed here.

{"compound": "CCOC(=O)c1cnn(-c2ccc(C(=O)Nc3ccc(CC)cc3)cn2)c1N", "SAM-II": "none", "PreQ1": "none", "TPP": "none"}
{"compound": "COc1ccc(C(=O)N2C[C@@H](CN3CCCN(C)CC3)C[C@H](CO)C2)o1", "SAM-II": "none", "PreQ1": "none", "TPP": "none"}
{"compound": "CC(O)Cn1c(=N)n(C)c2ccccc21", "stereo": "centres undefined", "SAM-II": "none", "PreQ1": "none", "TPP": "none"}
{"compound": "CCOC(=O)c1cnc2ccc(Cl)cc2c1Nc1ccc(C(=O)OC)cc1", "SAM-II": "none", "PreQ1": "none", "TPP": "none"}
{"compound": "Fc1ccc(CNc2cc(-c3ccccc3)nc3nncn23)cc1", "PreQ1": "none", "TPP": "none"}
{"compound": "Clc1ccc2nc(-c3ccco3)c(Nc3ccc4c(c3)OCCO4)n2c1", "SAM-II": "none", "PreQ1": "none", "TPP": "none"}
{"compound": "O=C1c2ccccc2C(O)(c2ccccc2)N1c1ccncc1", "stereo": "centres undefined", "SAM-II": "none", "PreQ1": "none", "TPP": "none"}
{"compound": "Cc1cc(C)nc(N2CCC(NCc3cc(C)nn3C)CC2)n1", "SAM-II": "none", "PreQ1": "none", "TPP": "none"}
{"compound": "Cc1[nH]nc2c1C(c1ccccc1OCc1ccccc1Cl)C(C#N)=C(N)O2", "stereo": "centres undefined", "SAM-II": "none", "PreQ1": "none", "TPP": "none"}
{"compound": "Cc1c2ccncc2c(C)c2c1[nH]c1ccccc12", "SAM-II": "none", "PreQ1": "none", "TPP": "none"}
{"compound": "OCCC1CN(c2cc(N3CCCCC3)ncn2)CCN1C1CCCCC1", "stereo": "centres undefined", "SAM-II": "none", "PreQ1": "none", "TPP": "none"}
{"compound": "CCNc1nc(N(CC)CC)nc(-n2cnc(SCc3ccccc3)n2)n1", "PreQ1": "none", "TPP": "none"}
{"compound": "CCc1ccccc1OC1CN(C2CCNCC2)C1", "SAM-II": "none", "PreQ1": "none", "TPP": "none"}
{"compound": "CCc1nnc(CN2CCC3(CCC(=O)N(CCCO)C3)CC2)o1", "SAM-II": "none", "PreQ1": "none", "TPP": "none"}
{"compound": "O=C(Cn1ccnc1)N1CCC2(CCN(Cc3ccncc3)CC2)C(CO)C1", "stereo": "centres undefined", "SAM-II": "none", "PreQ1": "none", "TPP": "none"}
{"compound": "COCCOC(=O)C1=C(N)OC2=C(C(=O)CCC2)C1c1ccccc1", "stereo": "centres undefined", "SAM-II": "none", "PreQ1": "none", "TPP": "none"}
{"compound": "CCc1ccc(C=C2SC(=S)NC2=O)cc1", "SAM-II": "none", "PreQ1": "none", "TPP": "none"}
{"compound": "CCOC(=O)c1c(NC(C)=O)sc2c(OCC(O)CN3CCCCC3)c(Br)ccc12", "stereo": "centres undefined", "SAM-II": "none", "PreQ1": "hit", "TPP": "hit"}
{"compound": "COc1cc(OC)c(C2C(C#N)=C(N)Oc3[nH]nc(C)c32)cc1OC", "stereo": "centres undefined", "SAM-II": "none", "PreQ1": "none", "TPP": "none"}
{"compound": "CCOc1ccc2[nH]c(SCC(O)C(C)(C)C)nc2c1", "stereo": "centres undefined", "SAM-II": "none", "PreQ1": "none", "TPP": "none"}

The first 2 entries again:

- CCOC(=O)c1cnn(-c2ccc(C(=O)Nc3ccc(CC)cc3)cn2)c1N : SAM-II: none; PreQ1: none; TPP: none
- COc1ccc(C(=O)N2C[C@@H](CN3CCCN(C)CC3)C[C@H](CO)C2)o1 : SAM-II: none; PreQ1: none; TPP: none

From ROBIN, a set of small-molecule microarray screens (doi:10.1002/anie.202211358).